Data as given in PubChem BioAssay AID1053208 (Peter MacCallum Cancer Centre, 2014).
Test: 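Genes whose silencing cuts survival of bone tumour cells only with doxorubicin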 (primary screen). Cell system: mouse osteosarcoma cells, early-passage culture from an engineered mouse model of fibroblastic bone tumour. Knock-down reagent: siRNA pool against mouse genes, 40 nM. Duration: about 120 h (48 h before drug, then 72 h with drug). Challenge: doxorubicin 100 nM for 72 h, roughly 30-40% inhibitory dose. Measurement: 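Luminescent ATP signal taken as viability with or without 100 nM doxorubicin for 72 h; mean of two wells set against non-targeting siRNA and turned into robust z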. Direction: viability z-score with doxorubicin: higher = more viable cells under doxorubicin; viability z-score without drug: higher = more viable cells with knock-down alone. Call rule: 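Called active if knock-down leaves viability unchanged without drug (z within -2 to 2) but lowers it with doxorubicin (z at or under -2)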.
This is an unselected part of about 17,000 reagents tested. Over the whole deposit, 788 (4.7%) are marked active. 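Calls rest on z-score classes alone; an extra cut-off of viability at most 70% of control was not applied to them.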 A number with no mark means an inactive call. Not all columns of the deposit are shown.

| Gene | combined z-score class | viability z-score with doxorubicin | viability z-score without drug |
| --- | --- | --- | --- |
| Ugt1a1 | no change with or without drug | -0.67 | -0.34 |
| Ifit3 | no change with or without drug | -0.79 | -1.35 |
| Acaca | no change with or without drug | 1.35 | 0.84 |
| Soat2 | no change with or without drug | 0.56 | 0.51 |
| Or11j4 | no change with or without drug | -0.45 | -0.84 |
| Mapk6 | no change with or without drug | 1.69 | 0.51 |
| Haus3 | no change with or without drug | -0.22 | 0.84 |
| Kif3a | no change with or without drug | 0.56 | 0.84 |
| Gpatch3 | no change with or without drug | -1.24 | 1.18 |
| Ascl3 | no change with or without drug | 0 | 0.67 |
| Zfp687 | no change with or without drug | -0.45 | -1.52 |
| Fam221b | no change with or without drug | -1.8 | 1.52 |
| Cd9 | no change with or without drug | -0.9 | 0.51 |

Next part, starting with the last 2 of the part before.
| Gene | combined z-score class | viability z-score with doxorubicin | viability z-score without drug |
| --- | --- | --- | --- |
| Fam221b | no change with or without drug | -1.8 | 1.52 |
| Cd9 | no change with or without drug | -0.9 | 0.51 |
| Ptx3 | no change with or without drug | -0.22 | 0.84 |
| Tas1r3 | no change with or without drug | -0.45 | 0.51 |
| Cabp7 | no change with or without drug | -0.67 | 1.18 |
| Abcb10 | no change with or without drug | 0.56 | -0.17 |
| Dchs1 | no change with or without drug | -1.35 | -1.18 |
| Psmb4 | no change with or without drug | -1.69 | -0.67 |
| Hdac1 | no change with or without drug | 0.22 | -0.34 |
| 1700006J14Rik | no change with or without drug | 0.67 | 1.35 |
| Utf1 | no change with or without drug | -1.35 | -0.34 |
| AU040320 | no change with or without drug | 0.34 | 0.17 |
| Znhit2 | no change with or without drug | 0 | -1.01 |
| Itga2 | no change with or without drug | 0 | -0.17 |
| Sec24b | no change with or without drug | -0.11 | 1.18 |
| Fig4 | no change with or without drug | -1.57 | -0.84 |
| Ube2l6 | no change with or without drug | -0.22 | 0.51 |
| Fbxw17 | low cell count with doxorubicin only (active) | -2.02 | -0.84 |
| Ezh2 | no change with or without drug | -1.91 | 1.35 |
| Fkbp11 | no change with or without drug | 0 | 1.01 |
| Scara3 | no change with or without drug | 0.79 | 0.84 |
| Mpzl2 | no change with or without drug | 0.67 | 0.17 |
| Or7g22 | low cell count with doxorubicin only (active) | -2.36 | -0.17 |
